Reference: PubChem BioAssay AID540256 (National Center for Advancing Translational Sciences (NCATS), 2011)
“And” between values parts separate entries of the source, which are not always exact repeats. Identical values can stand only once. In all, about 300,000 compounds went through this assay and about 3,700 (1.2%) were called active. The inconclusive results got no clear call from the source; some entries with a clear call stand among them for comparison. The call rests on the fitted dose curve; tested in HEK293 cells. Potencies of inconclusive entries are doubtful fits and often do not repeat.

Experiment: qHTS for Inhibitors of binding or entry into cells for Lassa Virus; further: nearly all actives have a fitted effect of over 50% in size
Settings: Lassa virus pseudotype entry inhibition, cell reporter; activity change, negative = inhibition: at 37.9 µM (top of the series) unless noted
On the % scale 0 is the no-effect control and ±100 the full control effect; potency means the concentration at half of the fitted maximal effect.

Compound	Potency	activity change, negative = inhibition
NS(=O)(=O)c1ccc(CCNc2ncnc3c2c(-c2ccccc2)cn3-c2ccc(F)cc2)cc1	inconclusive: 28.2 µM [inhibitor, single point]	–
COc1cccc(-n2cc(C(=O)Nc3cc(OC)c(OC)c(OC)c3)c3ccccc3c2=O)c1	inconclusive: 15.8 µM [inhibitor, partial curve, poor fit]	–
Cc1cccc(C(=O)Oc2ccccc2C2C[C@]3(C)CC(=O)NC3N2C(=O)c2cccc(C)c2)c1 (stereo partly drawn)	inconclusive: 12.6 µM [inhibitor, partial curve, poor fit]	–
COc1ccc(Cc2nc3ccc(C(=O)N4CCC[C@H]4CO)cc3o2)cc1	inconclusive: 2.24 µM [inhibitor, partial curve, poor fit]	–
O=C(O)C1CCCN(C(=O)c2cccc3ccccc23)C1 (stereo not drawn)	–	inactive: 11.1% [at 46.1 µM]
O=C(CCCNS(=O)(=O)c1cccs1)N1CCN(c2cccc(Cl)c2)CC1	inconclusive: 18.3 µM [inhibitor, single point]	–
O=C(O)c1ccc2nc(-c3ccccc3)c(-c3ccccc3)nc2c1	inconclusive: 0.82 µM [inhibitor, partial curve, poor fit]	–
O=C(CCN1C(=O)/C(=C/c2ccc3c(c2)OCO3)SC1=S)Nc1ccc(C(=O)O)cc1	inconclusive: 20 µM [activator, single point]	–
Cc1nnc(NC(=O)c2ccc(S(=O)(=O)N3CC(C)CC(C)C3)cc2)o1 (stereo not drawn)	inconclusive: 35.5 µM [inhibitor, single point]	–
O=C(/C=C/c1ccccc1)c1ccc2ccccc2c1	inconclusive: 11.2 µM [inhibitor, partial curve, poor fit]	–
O=C(c1ccco1)N1CCN(C2CC(=O)N(c3ccc4c(c3)OCO4)C2=O)CC1 (stereo not drawn)	inconclusive: 23.1 µM [activator, partial curve, poor fit]	–
COc1cc(C(=O)Nc2cccnc2)cc(OC)c1OC	inconclusive: 1.26 µM [inhibitor, single point]	–
CCOc1ccc(C(=O)CCC(=O)Nc2ccc(C)c(S(=O)(=O)N3CCCCC3)c2)cc1	inconclusive: 35.5 µM [inhibitor, single point]	–
CCN(CC)c1ccc(C=C2C(=O)OC3(CCCC3)OC2=O)cc1	inconclusive: 1.41 µM [inhibitor, partial curve, poor fit]	–
CCN(Cc1ccccc1)S(=O)(=O)c1ccc(C(=O)N(CCCN(C)C)c2nc3c(F)cccc3s2)cc1	inconclusive: 35.5 µM [inhibitor, single point]	–
CC(C)OCCCNc1ncnc2c1nc1n2CCCC1	inconclusive: 22.4 µM [inhibitor, single point]	–
COc1ccc(NC(C#N)c2ccc(OC)cc2)cc1 (stereo not drawn)	–	inactive: -7.29%
CC(=O)Nc1ccccc1-c1nc2ccccc2n(CC(=O)c2ccc(Br)cc2)c1=O	–	inactive: -7.14% [at 46.1 µM]
O=C(COC(=O)Cn1cc(C(F)(F)F)ccc1=O)Nc1ccc(Br)cc1F	inconclusive: 6.31 µM [inhibitor, single point]	–
CC1=C(C(N)=O)C(c2ccc(C)cc2)n2nc(SCc3ccccc3F)nc2N1 (stereo not drawn)	–	inactive: 3.44% [at 46.1 µM]
C/C(=N\NC(=O)CCc1c[nH]c2ccccc12)c1cccc([N+](=O)[O-])c1	inconclusive: 20 µM [inhibitor, partial curve, poor fit]	–
CCN(CC)S(=O)(=O)c1cccc(C(=O)Nc2cc3oc4ccccc4c3cc2OC)c1	inconclusive: 7.94 µM [inhibitor, partial curve, poor fit]	–
O=S(=O)(c1ccc(F)cc1)c1nc(-c2ccco2)oc1Nc1ccccc1	inconclusive: 18.4 µM [activator, single point]	–

Compound	Potency	activity change, negative = inhibition
CS(=O)c1ccc(-n2c(=O)n(Cc3ccccc3)c(=O)c3[nH]cnc32)cc1 (stereo not drawn)	–	inactive: 21.5% [at 46.1 µM]
CCOc1ccc(N(C(=O)c2snc(C(N)=O)c2N)C(C(=O)NC2CCCC2)c2ccncc2)cc1 (stereo not drawn)	–	inactive: -0.0262% [at 46.1 µM]
CCOc1ccc(Nc2cc(C)nc3nc(Cc4ccc(Cl)cc4)nn23)cc1	inconclusive: 1.12 µM [inhibitor, full curve, poor fit]	–
Cc1cccc(-c2nc(CS(=O)CC(=O)NC(C)CCc3ccccc3)c(C)o2)c1 (stereo not drawn)	inconclusive: 35.5 µM [inhibitor, single point]	–
Fc1ccc(N/N=C2/CCSc3sccc32)c(F)c1	inconclusive: 3.55 µM [inhibitor, single point]	–
NC(=O)[C@@H]1CCCN1Cc1nc(-c2cccs2)no1	–	inactive: 17.7%
C=CCc1cccc(C=Nc2cc(Br)ccc2O)c1O	inconclusive: 35.5 µM [inhibitor, single point]	–
Cc1nc([N+](=O)[O-])c(SCC(O)CCl)n1Cc1ccc(Cl)cc1 (stereo not drawn)	–	inactive: 0.123%
Cc1nc(COc2cccc(Cl)c2)sc1C(=O)/C=C/N(C)C	inconclusive: 35.5 µM [inhibitor, single point]	–
CCOCCCn1c(=N)c(C(=O)NCc2cccnc2)cc2c(=O)n3cc(C)ccc3nc21	–	inactive: -3.32% [at 46.1 µM]
Cc1cccc(NC(=O)Nc2ccc(Br)cc2)n1	inactive and inconclusive: 1.58 µM [activator, partial curve, poor fit]	–
Fc1ccc(N2CCN(c3ncnc4c3nc3n4CCCCC3)CC2)cc1	–	inactive: -8.88% [at 46.1 µM]
CCOc1cccc(C(=O)Nc2ccc3[nH]ncc3c2)c1	inconclusive: 35.5 µM [inhibitor, single point]	–
CCOCC(=O)Nc1c(C(=O)Nc2ccc3c(c2)OCO3)oc2ccccc12	–	inactive: 0.373% [at 46.1 µM]
COc1cccc(CNC(=O)CCNS(=O)(=O)c2cccs2)c1	–	inactive: 8.3%
Cc1onc(-c2c(F)cccc2Cl)c1C(=O)Nc1ccc(OC(C)C)cc1	–	inactive: -25.8% [at 46.1 µM]
O=C(/C=C/c1ccc(OCc2c(F)cccc2Cl)cc1)N1CCOCC1	inconclusive: 2.51 µM [inhibitor, full curve, poor fit]	–
CN1C(=O)C2(c3ccccc31)N(C)CC(c1ccccn1)C21SC(=S)N(Cc2ccco2)C1=O (stereo not drawn)	–	inactive: -0.165%
COc1cc2c(cc1OC)C(c1cccc([N+](=O)[O-])c1)=NCC2	inconclusive: 0.631 µM [inhibitor, single point]	–
COc1cccc([C@@H]2Oc3ccc(Br)cc3C(=O)[C@@H]2OC(=O)Nc2ccc(OC(F)F)cc2)c1	inconclusive: 1.88 µM [activator, partial curve]	–
Cc1occc1-c1nnc(SCC(=O)NCc2cccs2)n1CC1CCCO1 (stereo not drawn)	inconclusive: 1.26 µM [inhibitor, single point]	–
COc1cc2c(cc1NC(=O)COC(=O)[C@@H](NS(=O)(=O)c1cccc(Cl)c1)C(C)C)oc1ccccc12	–	inactive: -21.2%
CC1CCCC(C)N1c1ccc(S(=O)(=O)N2CCOCC2)cc1Cl (stereo not drawn)	inconclusive: 6.31 µM [inhibitor, single point]	–

Compound	Potency	activity change, negative = inhibition
Cc1cc(=S)cc(C)n1CCO	–	inactive: 5.55% [at 46.1 µM]
CCOc1ccc(S(=O)(=O)Nc2ccc(C(=O)N3CC(C)OC(C)C3)cc2)cc1 (stereo not drawn)	inconclusive: 14.1 µM [inhibitor, single point]	–
CCOC(=O)c1c(NC(=O)COC)sc(C(C)=O)c1C	–	inactive: -8.2%
COc1ccc(-c2nsc3c(N4CCCC4)ncnc23)cc1	inconclusive: 8.2 µM [inhibitor, partial curve, poor fit]	–
O=S(=O)(Nc1cccc2cccnc12)c1ccc(S(=O)(=O)N2CCCC2)cc1	active: 8.2 µM	–
O=C(CCC(=O)N(CC(=O)NC1CCCCC1)Cc1cccs1)Nc1ccccn1	–	inactive: -0.393%
COc1cccc(C(=O)Nc2ccc(-n3nncc3-c3ccccc3)cc2)c1	inconclusive: 3.98 µM [inhibitor, full curve, poor fit]	–
CC(=O)Nc1ccc(Nc2nc3c(S(=O)(=O)c4cccc(Cl)c4)nnn3c3ccsc23)cc1	–	inactive: 9.45% [at 46.1 µM]
COC(=O)c1ccc(N2CCN(C)CC2)c(NC(=O)c2sc3ccccc3c2Cl)c1	–	inactive: 4.02% [at 46.1 µM]
CC(C)(C)NC(=O)Cn1nnc(-c2ccc(OCc3c(F)cccc3Cl)cc2)n1	–	inactive: 9.58% [at 46.1 µM]
Cc1nc2sc(-c3ccccc3)cc2c(=O)n1-n1cccc1	inconclusive: 0.1 µM [activator, full curve, poor fit]	–
CCOC(=O)C1CCN(C(=O)CSCc2nc(-c3ccc(OCC)cc3)oc2C)CC1	inconclusive: 25.1 µM [inhibitor, single point]	–
Cc1ccc(SCC(=O)Nc2cccc(NC(=O)c3ccco3)c2)cc1	–	inactive: -2.75%
CCN(CC)Cc1c(NC(=O)c2ccc(OC)cc2)sc2c1CCCC2	inconclusive: 0.316 µM [inhibitor, full curve, poor fit]	–
CCn1c(N2CCN(S(=O)(=O)c3ccc(Cl)cc3)CC2)nc2ccccc21	inconclusive: 35.5 µM [inhibitor, single point]	–
CCCCOc1ccc(C(=O)Nc2ccc(N3CCN(C)CC3)cc2)cc1	–	inactive: 13%
COc1ccc(CCNC(=O)CNCC2CCCO2)cc1OC (stereo not drawn)	inconclusive: 0.291 µM [inhibitor, full curve, poor fit]	–
COc1ccc(/C=N/Nc2nc3ccccc3s2)cc1O	inconclusive: 11.2 µM [inhibitor, partial curve, poor fit]	–
COc1ccc(S(=O)(=O)Nc2cc([N+](=O)[O-])ccc2OC)cc1	inconclusive: 6.31 µM [inhibitor, single point]	–
Cc1noc(C)c1COc1ccc(C(=O)Nc2ccccn2)cc1	–	inactive: 10.1% [at 46.1 µM]
O=C(Nc1ccc(Cl)cc1)/C(=C/c1cccc(O)c1)c1nc2ccccc2s1	inconclusive: 12.6 µM [inhibitor, partial curve, poor fit]	–
COC(=O)c1c(Oc2nc(OC)cc(OC)n2)cccc1Oc1nc(OC)cc(OC)n1	inconclusive: 29.1 µM [inhibitor, partial curve, poor fit]	–
